Measured values from paper doi:10.1101/2023.09.29.560113.
No constants are given. Whether binding was seen depends on the method and setting. Binding seen in cells or lysates may run through a third protein. Here binding means that the protein was enriched with, or labelled near, the bait; the list need not be complete. Where a sequence is shown, tags or fusion partners need not be part of it.

Protein sequences, listed by entry. Tags and fused reporters are not part of them. Lines headed by an entry give the natural chain unless they say otherwise; changes in a name come on top.
UniProt Q9ZUK7: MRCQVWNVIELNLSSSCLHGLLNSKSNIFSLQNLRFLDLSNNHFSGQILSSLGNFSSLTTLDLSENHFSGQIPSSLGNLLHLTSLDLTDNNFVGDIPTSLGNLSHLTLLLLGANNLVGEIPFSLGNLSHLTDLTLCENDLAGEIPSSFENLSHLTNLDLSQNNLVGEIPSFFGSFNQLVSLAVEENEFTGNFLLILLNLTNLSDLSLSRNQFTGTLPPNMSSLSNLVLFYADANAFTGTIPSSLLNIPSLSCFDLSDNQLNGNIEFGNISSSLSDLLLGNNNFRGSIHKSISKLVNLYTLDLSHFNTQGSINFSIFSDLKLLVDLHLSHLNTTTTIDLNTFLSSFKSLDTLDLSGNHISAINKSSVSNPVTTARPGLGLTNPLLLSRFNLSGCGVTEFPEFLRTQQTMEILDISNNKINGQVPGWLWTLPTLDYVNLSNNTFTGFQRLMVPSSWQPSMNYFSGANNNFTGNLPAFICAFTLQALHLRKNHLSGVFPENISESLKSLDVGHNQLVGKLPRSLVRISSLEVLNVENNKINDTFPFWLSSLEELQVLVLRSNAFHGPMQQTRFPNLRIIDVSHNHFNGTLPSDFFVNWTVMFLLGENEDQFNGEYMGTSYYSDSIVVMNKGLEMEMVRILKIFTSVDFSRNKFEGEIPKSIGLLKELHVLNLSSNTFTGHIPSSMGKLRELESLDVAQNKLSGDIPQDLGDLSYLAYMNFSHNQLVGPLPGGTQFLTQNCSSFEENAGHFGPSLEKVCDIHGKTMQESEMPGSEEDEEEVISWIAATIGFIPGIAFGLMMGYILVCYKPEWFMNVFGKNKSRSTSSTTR
UniProt O04157: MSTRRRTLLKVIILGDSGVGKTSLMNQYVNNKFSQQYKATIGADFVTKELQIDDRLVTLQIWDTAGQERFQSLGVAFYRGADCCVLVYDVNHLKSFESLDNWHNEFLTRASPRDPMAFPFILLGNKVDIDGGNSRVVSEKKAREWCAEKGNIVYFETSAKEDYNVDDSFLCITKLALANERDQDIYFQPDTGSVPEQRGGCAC

T1: NET4A-GFP fusion protein (Arabidopsis thaliana) (UniProt F4KEW8)
T1 sequence: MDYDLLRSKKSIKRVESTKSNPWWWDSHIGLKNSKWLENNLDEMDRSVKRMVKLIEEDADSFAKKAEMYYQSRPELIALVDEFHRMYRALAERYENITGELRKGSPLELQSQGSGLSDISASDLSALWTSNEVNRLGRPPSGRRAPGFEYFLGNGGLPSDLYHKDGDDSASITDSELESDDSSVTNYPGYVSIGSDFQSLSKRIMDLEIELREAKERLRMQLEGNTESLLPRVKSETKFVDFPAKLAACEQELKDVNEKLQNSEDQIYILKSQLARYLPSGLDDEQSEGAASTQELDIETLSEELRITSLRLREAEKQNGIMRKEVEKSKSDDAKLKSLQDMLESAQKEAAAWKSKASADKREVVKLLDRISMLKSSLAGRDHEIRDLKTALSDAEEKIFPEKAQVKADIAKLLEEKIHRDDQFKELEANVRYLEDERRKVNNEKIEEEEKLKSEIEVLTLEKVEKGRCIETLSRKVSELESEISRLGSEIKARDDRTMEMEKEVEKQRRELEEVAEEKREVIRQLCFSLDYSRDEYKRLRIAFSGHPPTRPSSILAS


Target: T1, NET4A-GFP fusion protein (Arabidopsis thaliana)
Test: affinity purification with mass spectrometry

| Molecule | binding |
| --- | --- |
| At2g15042 (from UniProt Q9ZUK7) | binds |
| RABG3B (from UniProt O04157 1-203) | binds |
| RABC1 (protein, UniProt O23657 1-212) MGSSSGQPEFDYLFKVLLIGDSGVGKSSLLLSFTSNTFDDLSPTIGVDFKVKYLTIGEKKLKLAIWDTAGQERFRTLTSSYYRGAQGIIMVYDVTRRDTFTNLSDIWAKEIDLYSTNQDCIKMLVGNKVDKESERAVSKKEGIDFAREYGCLFLECSAKTRVNVEQCFEELVLKILETPSLTAEGSSGGKKNIFKQNPAQTTSTSSSYCCSS | binds |

Results, then the molecule that gave them:

| binding | Molecule |
| --- | --- |
| binds | At4g01245 (from UniProt F4JI00) |
| binds | RABG3A (protein, UniProt Q948K8 1-206) MATRRRTLLKVIVLGDSGVGKTSLMNQYVHKKFSMQYKATIGADFVTKELQIGEKLVTLQIWDTAGQERFQSLGAAFYRGADCCALVYDVNVLRSFDNLETWHEEFLKQASPSDPKTFPFIVLGNKIDVDGGSSRVVSDKKAADWCASNGNIPYFETSAKDDFNVDEAFLTIAKTALANEHEQDIYFQGIPDAVTENEPKGGGCAC |
